Measured values as given in patent publication US5073624 (dated 1991).
Square brackets hold non-standard residues; d marks the D form. Ends that are not written are not given here. d2Nal = N[C@H](Cc1ccc2ccccc2c1)C(=O)O

Test: general procedure: Boc solid-phase peptide synthesis; Benzhydrylamine polystyrene resin (Bachem, Inc.)
Conditions: whole synthesis, scale 0.5 mmole

Question: With Ac-[d2Nal][dF][dF]SY[dR]FRP[dA] as the substance, how does the isolated mass read?
Answer: The isolated mass was 117 mg.
